These results are taken from paper PMC7819943, “Rice protein-binding microarrays: a tool to detect cis-acting elements near promoter regions in rice”.

The chains behind the UniProt entries cited, without tags or fusion partners.
UniProt Q0JBA9, entry or part of it: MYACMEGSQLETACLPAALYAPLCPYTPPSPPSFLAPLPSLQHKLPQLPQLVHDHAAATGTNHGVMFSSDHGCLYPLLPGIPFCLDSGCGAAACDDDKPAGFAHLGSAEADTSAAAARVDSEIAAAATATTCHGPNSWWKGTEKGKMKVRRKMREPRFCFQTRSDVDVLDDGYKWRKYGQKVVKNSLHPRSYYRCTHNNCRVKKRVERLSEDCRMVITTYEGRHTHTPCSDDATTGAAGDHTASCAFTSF

The list shows a part of the results.

In this experiment the target is OsWRKY34 (Oryza sativa, UniProt Q0JBA9 1-250). Kind of experiment: protein-binding microarray (RPBM); PBS, 2% BSA, 51.3 ng/ul salmon testes DNA, 50 uM zinc acetate, 200 nM TF, 25 C, 1 h; high values mean tight binding. To be noted: protein: recombinant; tags: N-terminal polyhistidine and DsRed monomer fusion (pET32a); label: CyDye5-dUTP incorporated in the synthesized complementary strand; 3' TTTTT single-stranded linker to array surface; dsDNA, one strand shown. The method, boiled down: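 Binding signal is reported as fluorescence intensity per feature (arbitrary units) from an Axon 4000B scanner. Incubation used 200 nM of each Ni–NTA-purified, N-terminally polyhistidine- and DsRed-fused transcription factor from E. coli BL21-CodonPlus on a double-stranded custom Agilent array for 1 h at 25 °C, with 50 µM zinc acetate in the buffer, followed by washing.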
On to “GCGTTGTGAGTGTTTGCGTTGTACTGTGTAATTTAAAAAACGGAGTCACCTAGTGCAG”, for which the binding signal is 8460 fluorescence intensity (a.u.).
For the sequence “TCGTCGCCCACTGCCACCGCTGACGTCACCGCACTCTCGCCGGAGTCACCTAGTGCAG”, the binding signal is 9280 fluorescence intensity (a.u.).
Next, “CGGCCACCGTTTCTTTTTTTTTTCTTCTTTGCGTCGTCATCGGAGTCACCTAGTGCAG”: 10200 fluorescence intensity (a.u.); “CTATCTGGTGATTTTTAGTCTTACATGGTAACCGATTGACCGGAGTCACCTAGTGCAG”: 8590 fluorescence intensity (a.u.).
Consider “GGCGGCGGCGGGGTGGCCTTGGCCGGGTGCCTTGGTGGATCGGAGTCACCTAGTGCAG”, for which the binding signal is 10300 fluorescence intensity (a.u.).
The result for “ATCTACCGCCGCCCACAACTCTCTGCCGCCGCCGTCGTCTCGGAGTCACCTAGTGCAG” reads 13100 fluorescence intensity (a.u.).
Regarding “GTGATATTCATGTGATGGTGGTGTGTTTTGATCTTCCTCTCGGAGTCACCTAGTGCAG”, the binding signal is 8540 fluorescence intensity (a.u.).
On to “GTATCATTTTCATAAAACCCTTTCAATGTTTATGAATTTACGGAGTCACCTAGTGCAG”, for which the binding signal is 8680 fluorescence intensity (a.u.).
On to “ATTGTTTGATGTGTGGGATATGTGATGGACTTTTGGCATTCGGAGTCACCTAGTGCAG”, for which the binding signal is 8100 fluorescence intensity (a.u.).
The result for “AAACTTAGCAAGAGCTCTGACCTATTGGAAAATTTTCTTTCGGAGTCACCTAGTGCAG” reads 9480 fluorescence intensity (a.u.).
Consider “GTTGGGTGGGTTTCCCGTCTCCTTCCGATTGCTGAGTAGCCGGAGTCACCTAGTGCAG”, for which the binding signal is 19100 fluorescence intensity (a.u.).
Turning to “ATTTGTGGGAGCTTGTTTTAGCTTCTGCTAGAAGCTGTCCCGGAGTCACCTAGTGCAG”, the binding signal was 8060 fluorescence intensity (a.u.).
For the sequence “ATGGTTGGTTTCGTGCTCTGTTTTTTTTTGGGAGAATTCGCGGAGTCACCTAGTGCAG”, the binding signal is 12800 fluorescence intensity (a.u.).
Take “TCAAGTATGGCCCTTATCCGGTGGTACTTTTGTCATTTTTCGGAGTCACCTAGTGCAG”: the binding signal was 11900 fluorescence intensity (a.u.).
Regarding “CACAATGCTATGGCTGCAACCGCTCAATTCGCCGCTCATCCGGAGTCACCTAGTGCAG”, the binding signal is 10200 fluorescence intensity (a.u.).
Consider “CCACTCTGCACCGAACTGGGGATCCTCTCTGCTGCATTGTCGGAGTCACCTAGTGCAG”, for which the binding signal was 8710 fluorescence intensity (a.u.).
On to “CCTCCACTTCGCCAACTATCGCACCTCATCACTTCGCCATCGGAGTCACCTAGTGCAG”, for which the binding signal was 15100 fluorescence intensity (a.u.).
The result for “TTATTTCTTGTGCTAGTCTTGCGTTGGCTGATGCTGGAATCGGAGTCACCTAGTGCAG” reads 8270 fluorescence intensity (a.u.); that for “GGCTCAACAAATAATGTGAAGATCTCTCATTTTCATTTTCCGGAGTCACCTAGTGCAG”, 8050 fluorescence intensity (a.u.); that for “TCATTTAATTAGATCTTCATTTCCATCCAGCGTACTTAAACGGAGTCACCTAGTGCAG”, 9140 fluorescence intensity (a.u.).
For the sequence “AACATGTATGAACATAGTTTGACTTAGTTGTCTGGTTTTTCGGAGTCACCTAGTGCAG”, the binding signal is 8470 fluorescence intensity (a.u.).
Turning to “TTCATATCCTGTTTCTATAATCGATTTCCCTCCAAATCCACGGAGTCACCTAGTGCAG”, the binding signal is 11000 fluorescence intensity (a.u.).
Take “TTACTTGCATTGTCAGTTTCCATTTGGTGTTAACATGACTCGGAGTCACCTAGTGCAG”: the binding signal is 8860 fluorescence intensity (a.u.).
In the case of “TACACGCTCATGTACTTCATCACCGAGGCCGCGTTCAACACGGAGTCACCTAGTGCAG”, the binding signal is 11100 fluorescence intensity (a.u.).
The result for “CTAAAACCGGATCAATTGACATCCCTCGACGGTTTACATTCGGAGTCACCTAGTGCAG” reads 8390 fluorescence intensity (a.u.).
With “TCTTCCTCTCGCTGCTGCTTACGATTCCTCTTCTTCTTCTCGGAGTCACCTAGTGCAG”, the binding signal was 8660 fluorescence intensity (a.u.).
In the case of “AGCACTGCCCACACTGCCAAAATATGCCATATGTTATCCTCGGAGTCACCTAGTGCAG”, the binding signal was 8470 fluorescence intensity (a.u.).
Turning to “TCCTTCCTCGCGGCCGTCGCCACCTTCTTCGGCCCCGCCGCGGAGTCACCTAGTGCAG”, the binding signal is 8190 fluorescence intensity (a.u.).
For the sequence “TCTCTCCGCGCTCCGTGTCCGACCTTCTTCAGACTTCACACGGAGTCACCTAGTGCAG”, the binding signal is 10700 fluorescence intensity (a.u.).
The result for “AATCATCCTTCTTTTGTATTTATTCTCGATCCATTTATCTCGGAGTCACCTAGTGCAG” reads 9020 fluorescence intensity (a.u.); that for “AACTCGCCCAATCTTCAGGTGCGGCTGCTCGCGTTCATCACGGAGTCACCTAGTGCAG”, 8110 fluorescence intensity (a.u.); that for “CTTTTTAATCAACGTTTGACCATTCGTCTTATTCAATTTTCGGAGTCACCTAGTGCAG”, 10900 fluorescence intensity (a.u.).
With “GAGTTGTGTGTAGCCGCCACAGTAGTCTTTTGTCTCTTCTCGGAGTCACCTAGTGCAG”, the binding signal was 9860 fluorescence intensity (a.u.).
Regarding “GGGGTGTTTCCTCGGGTCTTAGAGGGATGGCCGTGGGCGGCGGAGTCACCTAGTGCAG”, the binding signal is 10600 fluorescence intensity (a.u.).
As for “TAATCTCTTGATGATTTGCTGTAACTACATTCCCTTGATACGGAGTCACCTAGTGCAG”, the binding signal is 8460 fluorescence intensity (a.u.).
On to “TATTCTTGCCTTTTTCTTATGCTCAATTTAAACAGTCATTCGGAGTCACCTAGTGCAG”, for which the binding signal was 9490 fluorescence intensity (a.u.).
Consider “CTCACTCCGATGCACCTGCCCTCGCCGACTCGCCGTTAAACGGAGTCACCTAGTGCAG”, for which the binding signal was 8210 fluorescence intensity (a.u.).
Turning to “TCTGTTGATCACCCAATCTAGTCTAAAATTGGTATTGCATCGGAGTCACCTAGTGCAG”, the binding signal is 9560 fluorescence intensity (a.u.).
Turning to “TTAGGATTGCTTATATTTTGGGACGGAGGGAGGGAGTAATCGGAGTCACCTAGTGCAG”, the binding signal was 9090 fluorescence intensity (a.u.).
With “TTTTGTCCGTTTGAGTTTATTTTTTATATGTTTGGTTCTTCGGAGTCACCTAGTGCAG”, the binding signal is 13000 fluorescence intensity (a.u.).
Regarding “TCTGTATGTTGTTTTGTCGTGGTGAAATTGTTGTTAGTATCGGAGTCACCTAGTGCAG”, the binding signal is 13700 fluorescence intensity (a.u.).
For “TTTTTTTTCACTTTTCCATCACATTAAAACTTTCCTACACCGGAGTCACCTAGTGCAG”, the binding signal is 8500 fluorescence intensity (a.u.).
